Laboratory results taken from the supplement of paper PMC10849652.
This is one part of the list.

By UniProt entry, the sequences of proteins in these tests, tags left out. Where a name states a change or a piece, a line headed by the entry shows the natural chain unless it says otherwise.
UniProt Q92619: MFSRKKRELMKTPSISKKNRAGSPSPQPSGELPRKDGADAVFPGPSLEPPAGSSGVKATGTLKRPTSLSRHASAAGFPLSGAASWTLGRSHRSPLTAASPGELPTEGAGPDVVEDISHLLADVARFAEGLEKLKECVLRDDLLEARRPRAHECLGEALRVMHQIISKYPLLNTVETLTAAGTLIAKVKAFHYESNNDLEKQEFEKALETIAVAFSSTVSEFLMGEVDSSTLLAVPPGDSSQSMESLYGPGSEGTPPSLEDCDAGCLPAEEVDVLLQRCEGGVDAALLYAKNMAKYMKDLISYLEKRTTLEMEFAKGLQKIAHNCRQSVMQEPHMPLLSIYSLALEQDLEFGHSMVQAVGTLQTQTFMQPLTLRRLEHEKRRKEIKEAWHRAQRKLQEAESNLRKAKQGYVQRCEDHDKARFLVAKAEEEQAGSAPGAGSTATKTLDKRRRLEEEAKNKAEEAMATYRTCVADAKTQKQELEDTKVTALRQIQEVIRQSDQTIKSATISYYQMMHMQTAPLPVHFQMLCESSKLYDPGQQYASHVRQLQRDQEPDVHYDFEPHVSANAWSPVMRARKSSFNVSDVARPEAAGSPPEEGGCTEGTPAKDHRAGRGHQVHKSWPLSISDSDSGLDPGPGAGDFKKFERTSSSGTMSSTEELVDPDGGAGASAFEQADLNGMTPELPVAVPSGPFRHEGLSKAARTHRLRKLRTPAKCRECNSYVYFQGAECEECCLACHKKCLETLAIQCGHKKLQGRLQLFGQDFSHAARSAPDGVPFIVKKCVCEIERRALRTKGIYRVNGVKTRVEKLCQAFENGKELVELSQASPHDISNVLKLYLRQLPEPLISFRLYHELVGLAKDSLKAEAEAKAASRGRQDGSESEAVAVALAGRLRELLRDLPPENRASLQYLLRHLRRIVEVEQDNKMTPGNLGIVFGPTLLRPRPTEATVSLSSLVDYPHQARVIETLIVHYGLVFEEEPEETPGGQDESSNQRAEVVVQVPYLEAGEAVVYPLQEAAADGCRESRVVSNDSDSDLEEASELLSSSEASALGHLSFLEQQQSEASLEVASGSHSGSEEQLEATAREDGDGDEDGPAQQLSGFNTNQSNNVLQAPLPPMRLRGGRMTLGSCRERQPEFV
UniProt Q9NP61: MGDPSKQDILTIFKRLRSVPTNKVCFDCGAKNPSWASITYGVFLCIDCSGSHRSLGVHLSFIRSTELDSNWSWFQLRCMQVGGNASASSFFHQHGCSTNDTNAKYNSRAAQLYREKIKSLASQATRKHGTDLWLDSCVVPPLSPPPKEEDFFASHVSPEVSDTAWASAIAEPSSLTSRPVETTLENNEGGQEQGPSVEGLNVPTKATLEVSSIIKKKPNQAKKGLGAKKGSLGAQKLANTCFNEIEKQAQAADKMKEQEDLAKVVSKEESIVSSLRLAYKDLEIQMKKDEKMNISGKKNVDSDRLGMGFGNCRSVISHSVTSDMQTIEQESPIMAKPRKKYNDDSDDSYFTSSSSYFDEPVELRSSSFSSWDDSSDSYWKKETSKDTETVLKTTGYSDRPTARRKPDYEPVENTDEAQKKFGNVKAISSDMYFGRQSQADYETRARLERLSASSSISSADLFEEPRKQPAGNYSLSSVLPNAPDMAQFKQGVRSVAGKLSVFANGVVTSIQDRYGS
UniProt Q9BXS5: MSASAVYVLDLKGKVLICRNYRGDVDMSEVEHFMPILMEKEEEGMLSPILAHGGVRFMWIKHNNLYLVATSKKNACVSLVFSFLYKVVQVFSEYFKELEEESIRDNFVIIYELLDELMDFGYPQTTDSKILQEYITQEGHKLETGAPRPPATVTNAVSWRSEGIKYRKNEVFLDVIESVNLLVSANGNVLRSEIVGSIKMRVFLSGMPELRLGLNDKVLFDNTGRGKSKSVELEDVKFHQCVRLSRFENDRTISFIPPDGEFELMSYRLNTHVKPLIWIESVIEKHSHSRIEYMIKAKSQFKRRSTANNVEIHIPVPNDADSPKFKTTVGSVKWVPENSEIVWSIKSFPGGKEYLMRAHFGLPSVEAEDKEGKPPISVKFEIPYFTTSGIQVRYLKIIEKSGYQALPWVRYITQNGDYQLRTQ
UniProt Q92688: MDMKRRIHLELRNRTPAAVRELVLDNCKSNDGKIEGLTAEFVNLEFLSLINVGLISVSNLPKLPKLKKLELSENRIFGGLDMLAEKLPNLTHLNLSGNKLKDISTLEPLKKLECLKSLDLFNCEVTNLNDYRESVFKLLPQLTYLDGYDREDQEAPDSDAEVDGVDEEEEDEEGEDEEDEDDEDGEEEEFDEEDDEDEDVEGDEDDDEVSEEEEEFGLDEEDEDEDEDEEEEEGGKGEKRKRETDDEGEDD
UniProt P27695, whole entry, looked up: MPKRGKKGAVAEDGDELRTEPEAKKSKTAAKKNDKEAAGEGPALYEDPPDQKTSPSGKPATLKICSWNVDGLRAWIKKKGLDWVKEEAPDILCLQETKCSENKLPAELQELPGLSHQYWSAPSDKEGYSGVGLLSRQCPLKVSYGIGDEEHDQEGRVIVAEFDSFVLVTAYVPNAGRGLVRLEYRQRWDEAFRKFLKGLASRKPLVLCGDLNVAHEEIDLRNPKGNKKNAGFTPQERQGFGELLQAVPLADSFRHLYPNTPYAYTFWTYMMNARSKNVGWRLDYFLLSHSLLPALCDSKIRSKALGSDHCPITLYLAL
UniProt P18085: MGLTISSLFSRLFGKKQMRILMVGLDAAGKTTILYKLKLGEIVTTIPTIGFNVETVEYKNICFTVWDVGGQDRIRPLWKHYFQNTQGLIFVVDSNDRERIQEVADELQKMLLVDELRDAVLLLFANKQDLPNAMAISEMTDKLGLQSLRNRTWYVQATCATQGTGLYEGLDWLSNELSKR
UniProt P04083: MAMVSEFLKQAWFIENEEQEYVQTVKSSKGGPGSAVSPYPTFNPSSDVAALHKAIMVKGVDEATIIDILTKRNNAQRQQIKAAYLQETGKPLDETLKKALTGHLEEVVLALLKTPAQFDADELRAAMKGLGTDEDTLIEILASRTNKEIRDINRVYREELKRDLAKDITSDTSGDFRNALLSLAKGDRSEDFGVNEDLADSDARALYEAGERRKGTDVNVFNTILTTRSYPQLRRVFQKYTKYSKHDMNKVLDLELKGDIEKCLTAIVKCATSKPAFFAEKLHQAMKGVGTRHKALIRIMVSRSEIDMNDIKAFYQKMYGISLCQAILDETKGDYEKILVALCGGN
UniProt P13798: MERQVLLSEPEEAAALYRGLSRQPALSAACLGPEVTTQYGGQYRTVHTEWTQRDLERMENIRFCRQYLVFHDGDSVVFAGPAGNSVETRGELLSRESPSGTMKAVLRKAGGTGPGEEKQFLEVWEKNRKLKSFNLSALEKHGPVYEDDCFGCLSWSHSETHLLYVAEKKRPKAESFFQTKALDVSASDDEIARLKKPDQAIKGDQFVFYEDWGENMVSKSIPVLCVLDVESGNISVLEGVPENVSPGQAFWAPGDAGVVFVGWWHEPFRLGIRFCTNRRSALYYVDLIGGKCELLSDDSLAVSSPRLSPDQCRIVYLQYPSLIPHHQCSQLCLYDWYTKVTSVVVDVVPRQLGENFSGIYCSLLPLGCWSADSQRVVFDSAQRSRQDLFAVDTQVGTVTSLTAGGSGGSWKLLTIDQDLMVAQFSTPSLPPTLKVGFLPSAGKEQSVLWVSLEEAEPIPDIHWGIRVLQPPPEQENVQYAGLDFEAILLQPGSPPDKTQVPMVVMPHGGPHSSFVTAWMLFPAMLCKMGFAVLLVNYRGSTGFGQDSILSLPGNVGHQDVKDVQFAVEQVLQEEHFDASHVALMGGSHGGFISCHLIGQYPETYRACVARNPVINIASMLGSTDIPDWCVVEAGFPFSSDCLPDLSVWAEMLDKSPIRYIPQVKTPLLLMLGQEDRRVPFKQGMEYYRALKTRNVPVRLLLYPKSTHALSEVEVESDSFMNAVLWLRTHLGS
UniProt P58335, whole entry, looked up: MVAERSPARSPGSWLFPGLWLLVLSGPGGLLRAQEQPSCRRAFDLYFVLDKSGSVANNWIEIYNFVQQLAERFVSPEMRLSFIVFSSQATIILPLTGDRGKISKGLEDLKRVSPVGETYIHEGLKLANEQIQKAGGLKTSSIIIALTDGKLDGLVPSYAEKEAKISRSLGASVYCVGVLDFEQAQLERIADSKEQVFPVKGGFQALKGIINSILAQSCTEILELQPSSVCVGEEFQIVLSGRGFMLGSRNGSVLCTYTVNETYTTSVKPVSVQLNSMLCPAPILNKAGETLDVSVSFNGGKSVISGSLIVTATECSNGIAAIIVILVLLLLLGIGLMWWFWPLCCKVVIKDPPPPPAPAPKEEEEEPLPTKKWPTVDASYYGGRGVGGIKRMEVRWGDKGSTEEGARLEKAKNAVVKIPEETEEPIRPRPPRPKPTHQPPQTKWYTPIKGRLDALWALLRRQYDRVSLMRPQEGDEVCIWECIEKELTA
UniProt Q63HQ0: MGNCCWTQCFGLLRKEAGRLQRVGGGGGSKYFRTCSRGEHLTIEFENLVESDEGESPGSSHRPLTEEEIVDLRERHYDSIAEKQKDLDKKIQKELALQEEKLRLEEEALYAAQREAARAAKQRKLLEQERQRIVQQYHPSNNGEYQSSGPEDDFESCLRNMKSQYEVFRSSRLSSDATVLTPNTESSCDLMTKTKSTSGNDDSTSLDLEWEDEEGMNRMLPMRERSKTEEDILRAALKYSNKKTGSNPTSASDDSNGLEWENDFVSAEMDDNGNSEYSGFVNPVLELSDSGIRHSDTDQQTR
UniProt Q8IV38: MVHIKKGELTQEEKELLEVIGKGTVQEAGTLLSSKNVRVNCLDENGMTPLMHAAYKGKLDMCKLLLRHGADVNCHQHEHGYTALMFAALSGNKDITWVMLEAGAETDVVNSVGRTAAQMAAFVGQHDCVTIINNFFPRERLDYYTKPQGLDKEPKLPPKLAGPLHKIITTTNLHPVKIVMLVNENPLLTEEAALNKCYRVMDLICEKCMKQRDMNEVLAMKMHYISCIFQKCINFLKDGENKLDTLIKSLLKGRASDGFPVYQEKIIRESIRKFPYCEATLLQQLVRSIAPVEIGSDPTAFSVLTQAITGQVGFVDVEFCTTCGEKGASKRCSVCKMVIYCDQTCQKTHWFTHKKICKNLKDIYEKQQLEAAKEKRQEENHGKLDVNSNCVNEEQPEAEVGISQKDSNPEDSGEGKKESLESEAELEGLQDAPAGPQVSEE
UniProt Q9BTT0: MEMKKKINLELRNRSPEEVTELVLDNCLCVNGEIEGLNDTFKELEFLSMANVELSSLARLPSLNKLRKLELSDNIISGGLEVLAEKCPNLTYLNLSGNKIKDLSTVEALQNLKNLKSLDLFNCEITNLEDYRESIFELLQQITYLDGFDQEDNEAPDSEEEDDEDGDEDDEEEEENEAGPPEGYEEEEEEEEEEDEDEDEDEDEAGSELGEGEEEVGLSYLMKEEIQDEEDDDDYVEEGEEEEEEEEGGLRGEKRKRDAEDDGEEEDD
UniProt P84077: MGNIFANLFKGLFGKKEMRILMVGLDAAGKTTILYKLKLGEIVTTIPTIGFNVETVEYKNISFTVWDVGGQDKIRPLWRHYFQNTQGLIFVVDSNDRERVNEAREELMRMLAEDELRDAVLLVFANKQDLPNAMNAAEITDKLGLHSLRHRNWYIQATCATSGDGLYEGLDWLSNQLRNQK
UniProt O95782: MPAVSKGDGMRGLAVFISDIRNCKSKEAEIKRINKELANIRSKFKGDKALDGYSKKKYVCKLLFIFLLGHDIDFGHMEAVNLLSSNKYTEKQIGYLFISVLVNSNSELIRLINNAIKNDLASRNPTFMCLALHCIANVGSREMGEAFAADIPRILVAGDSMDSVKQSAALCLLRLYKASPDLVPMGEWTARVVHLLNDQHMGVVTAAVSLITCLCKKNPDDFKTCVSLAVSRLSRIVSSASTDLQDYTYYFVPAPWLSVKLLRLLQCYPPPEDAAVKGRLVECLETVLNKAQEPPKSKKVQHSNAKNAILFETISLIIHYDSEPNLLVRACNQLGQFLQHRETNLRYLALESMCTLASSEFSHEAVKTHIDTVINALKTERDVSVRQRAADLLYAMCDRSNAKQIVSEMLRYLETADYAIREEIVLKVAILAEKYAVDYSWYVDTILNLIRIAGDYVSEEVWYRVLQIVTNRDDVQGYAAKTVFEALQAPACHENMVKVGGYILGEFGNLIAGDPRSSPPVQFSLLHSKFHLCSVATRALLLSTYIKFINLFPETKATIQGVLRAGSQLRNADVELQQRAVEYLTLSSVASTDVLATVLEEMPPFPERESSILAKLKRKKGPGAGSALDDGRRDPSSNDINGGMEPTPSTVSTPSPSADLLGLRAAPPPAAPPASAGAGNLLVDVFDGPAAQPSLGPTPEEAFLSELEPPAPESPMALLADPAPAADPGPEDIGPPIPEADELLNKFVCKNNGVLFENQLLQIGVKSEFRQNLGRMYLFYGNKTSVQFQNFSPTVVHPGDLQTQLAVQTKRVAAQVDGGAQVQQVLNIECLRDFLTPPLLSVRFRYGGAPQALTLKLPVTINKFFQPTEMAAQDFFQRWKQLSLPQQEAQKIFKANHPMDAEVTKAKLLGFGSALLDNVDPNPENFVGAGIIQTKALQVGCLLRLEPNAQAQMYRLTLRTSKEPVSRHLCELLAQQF

Assays:
Experiment in all cases: log2 fold change, soluble protein after heating vs DMSO (PISA); higher = thermal stabilisation; K562 cells, 10 uM, 30 min; active = over 0.2 and 3.5 SD of the protein, either way, in both replicates (recomputed)
erlotinib = compound: C#Cc1cccc(Nc2ncnc3cc(OCCOC)c(OCCOC)cc23)c1 [erlotinib]
Outline: (§1)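 Aliquots of K562 cells (2×10^6 cells/mL) treated with 10 μM compound for 30 min were heated for 3 min over 48°C-58°C. After pooling and extraction in PBS with 0.5% NP-40 at 4°C, soluble protein from a 21,000xg, 90 min spin was quantified by TMTpro 16plex LC-MS/MS with channel sums equalised. Thermal stability is expressed against control samples, from duplicates, as a log2 fold change.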

[1] = compound: C/C(=N\NC(=O)C1=CC(=CC=C1)S(=O)(=O)N2CCOCC2)/C3=C(C=CC(=C3)Cl)O
Outline: as §1

[2] = compound: C1=CC(=C(C=C1Cl)C2=NC3=NC=CN=C3C(=N2)NC4=CC=NC=C4)F
Outline: as §1

[3] = compound: C1=CC(=CC=C1C2=NC3=C(N2)C=C(C=C3)C(=O)N)OC4=CC=C(C=C4)Cl
Outline: as §1

[4] = compound: C1=CC2=C(C=CC(=C2)/C=C\3/C(=O)NC(=NCC4=CC=CS4)S3)N=C1
Outline: as §1

[5] = compound: C1=CC2=NC=CN=C2C=C1/C=C/3\C(=O)NC(=O)S3
Outline: as §1

[6] = compound: C1=CC=C(C=C1)C2=NC(=C(N2)C3=CC=NC=C3)C4=CC(=C(C=C4)Cl)O
Outline: as §1

[7] = compound: C1=CC=C2C(=C1)C3=NNC4=CC=CC(=C43)C2=O
Outline: as §1

[8] = compound: C1CCN(C1)C(=O)NC2=CC=CC(=C2)NC3=NC=C(C(=N3)NCCC4=CN=CN4)Br
Outline: as §1

[9] = compound: C1CN(CCC1(CC2=CC=C(C=C2)Cl)N)C3=NC=NC4=C3C=CN4
Outline: as §1

Measured: log2 fold change

AP1B1 (UniProt Q10567)
inactive: erlotinib 0.047 | [1] 0.062 | [2] 0.008 | [3] -0.017 | [4] -0.053 | [5] 0.04 | [6] 0.036 | [7] 0.029 | [8] -0.05 | [9] 0

ARHGAP45 isoform 2 (UniProt Q92619)
inactive: erlotinib -0.034 | [1] 0.002 | [2] -0.014 | [3] 0.085 | [4] 0.08 | [5] 0.143 | [6] 0.04 | [7] -0.049 | [8] 0.026 | [9] 0.005

ARFGAP3 (UniProt Q9NP61)
inactive: erlotinib -0.034 | [1] 0.079 | [2] 0.048 | [3] 0.001 | [4] 0.075 | [5] 0.032 | [6] -0.036 | [7] -0.017 | [8] -0.011 | [9] 0.093

ANXA4 (UniProt P09525)
inactive: erlotinib 0.05 | [1] 0.058 | [2] 0.061 | [3] 0.021 | [4] 0.1 | [5] -0.029 | [6] 0.022 | [7] -0.005 | [8] -0.016 | [9] -0.032

AP1M1 (UniProt Q9BXS5)
inactive: erlotinib 0.012 | [1] 0.015 | [2] -0.009 | [3] 0.015 | [4] 0.052 | [5] 0.044 | [6] 0.016 | [7] 0.002 | [8] -0.033 | [9] 0.032

AP2A2 isoform 2 (UniProt O94973)
inactive: erlotinib 0.007 | [1] 0.014 | [2] -0.004 | [3] -0.012 | [4] 0.007 | [5] 0.004 | [6] 0.072 | [7] -0.118 | [9] 0.028
active: [8] -0.284

ANTKMT (UniProt Q9BQD7)
inactive: erlotinib 0.121 | [1] 0.194 | [2] 0.173 | [3] -0.046 | [4] 0.03 | [5] -0.143 | [6] 0.043 | [7] 0.061 | [8] 0.24 | [9] -0.012

ANP32B (UniProt Q92688)
inactive: erlotinib -0.006 | [1] 0.042 | [2] -0.006 | [3] -0.014 | [4] 0.013 | [5] 0.015 | [6] -0.043 | [7] 0.006 | [8] -0.019 | [9] 0.019

APEX1 (UniProt P27695)
inactive: erlotinib -0.014 | [1] 0.027 | [2] 0.041 | [3] 0.004 | [4] 0.03 | [5] 0.007 | [6] 0.045 | [7] 0 | [8] 0.088 | [9] -0.071

ARF4 (UniProt P18085)
inactive: erlotinib -0.029 | [1] 0.033 | [2] 0.093 | [3] -0.007 | [4] 0.006 | [5] -0.016 | [6] 0.093 | [7] 0.039 | [8] -0.015 | [9] -0.021

5 successive records out of the list so far, for reference:
ARFGAP3 (UniProt Q9NP61)
inactive: erlotinib -0.034 | [1] 0.079 | [2] 0.048 | [3] 0.001 | [4] 0.075 | [5] 0.032 | [6] -0.036 | [7] -0.017 | [8] -0.011 | [9] 0.093

ANXA4 (UniProt P09525)
inactive: erlotinib 0.05 | [1] 0.058 | [2] 0.061 | [3] 0.021 | [4] 0.1 | [5] -0.029 | [6] 0.022 | [7] -0.005 | [8] -0.016 | [9] -0.032

AP1M1 (UniProt Q9BXS5)
inactive: erlotinib 0.012 | [1] 0.015 | [2] -0.009 | [3] 0.015 | [4] 0.052 | [5] 0.044 | [6] 0.016 | [7] 0.002 | [8] -0.033 | [9] 0.032

AP2A2 isoform 2 (UniProt O94973)
inactive: erlotinib 0.007 | [1] 0.014 | [2] -0.004 | [3] -0.012 | [4] 0.007 | [5] 0.004 | [6] 0.072 | [7] -0.118 | [9] 0.028
active: [8] -0.284

ANTKMT (UniProt Q9BQD7)
inactive: erlotinib 0.121 | [1] 0.194 | [2] 0.173 | [3] -0.046 | [4] 0.03 | [5] -0.143 | [6] 0.043 | [7] 0.061 | [8] 0.24 | [9] -0.012

Going on with the list:

ANXA1 (UniProt P04083)
inactive: erlotinib 0.043 | [1] 0.1 | [2] 0.138 | [3] -0.05 | [4] 0.004 | [5] 0.001 | [6] 0.05 | [7] 0.058 | [8] 0.026 | [9] -0.097

ANAPC5 (UniProt Q9UJX4)
inactive: erlotinib -0.052 | [1] 0.039 | [2] -0.048 | [3] 0.034 | [4] -0.023 | [5] 0.008 | [6] 0.005 | [7] 0.043 | [8] 0 | [9] -0.055

APOBR (UniProt Q0VD83)
inactive: erlotinib 0.042 | [1] 0.008 | [2] 0.038 | [3] -0.008 | [4] 0.048 | [5] 0.036 | [6] -0.03 | [7] -0.017 | [8] 0.038 | [9] 0.001

ARIH1 (UniProt Q9Y4X5)
inactive: erlotinib 0 | [1] -0.04 | [2] 0.082 | [3] -0.026 | [4] 0.051 | [5] 0.007 | [6] -0.038 | [7] -0.041 | [8] 0.008 | [9] 0.036

ARFGAP2 (UniProt Q8N6H7)
inactive: erlotinib 0.017 | [1] 0.034 | [2] 0.019 | [3] -0.016 | [4] 0.06 | [5] 0 | [6] -0.01 | [7] -0.007 | [8] -0.053 | [9] -0.009

APPL1 (UniProt Q9UKG1)
inactive: erlotinib -0.049 | [1] 0.162 | [2] 0.055 | [3] 0.012 | [4] 0.055 | [5] 0.016 | [6] 0.038 | [7] -0.029 | [8] 0.014 | [9] 0.003

APEH (UniProt P13798)
inactive: erlotinib -0.034 | [1] -0.006 | [2] 0.013 | [3] 0.011 | [4] 0.008 | [5] 0.001 | [6] 0 | [7] -0.014 | [8] 0.004 | [9] 0.035

ANTXR2 isoform 4 (UniProt P58335)
inactive: erlotinib -0.004 | [1] 0.001 | [2] -0.009 | [3] 0.018 | [4] 0 | [5] 0.032 | [6] 0.008 | [7] -0.035 | [8] -0.017 | [9] 0.038

AP3S1 (UniProt Q92572)
inactive: erlotinib 0.011 | [1] 0.024 | [2] -0.03 | [3] 0.074 | [4] 0.003 | [5] 0.008 | [6] -0.026 | [7] -0.03 | [8] 0.012 | [9] -0.006

AP1AR (UniProt Q63HQ0)
inactive: erlotinib -0.129 | [1] -0.078 | [2] 0.058 | [3] 0.132 | [4] 0.067 | [5] 0.085 | [6] -0.005 | [7] -0.051 | [8] 0.022 | [9] 0.07

ARFGEF1 (UniProt Q9Y6D6)
inactive: erlotinib 0.016 | [1] 0.025 | [2] 0.03 | [3] -0.03 | [4] 0.016 | [5] 0.015 | [6] 0.101 | [7] 0.051 | [8] -0.013 | [9] 0.043

ANKMY2 (UniProt Q8IV38)
inactive: erlotinib 0.01 | [1] 0.047 | [2] 0.044 | [3] 0.009 | [4] 0.005 | [5] 0.014 | [6] 0 | [7] 0.002 | [8] -0.024 | [9] -0.028

ARFGAP1 (UniProt Q8N6T3)
inactive: erlotinib -0.017 | [1] 0.131 | [2] 0.086 | [3] -0.072 | [4] -0.017 | [5] -0.018 | [6] -0.069 | [7] 0.035 | [8] -0.037 | [9] 0.001

ANKHD1 isoform 6 (UniProt Q8IWZ3)
inactive: erlotinib 0.012 | [1] 0.032 | [2] -0.224 | [3] -0.1 | [4] -0.03 | [5] -0.001 | [6] -0.032 | [7] 0.015 | [8] -0.083 | [9] -0.108

ANO6 isoform 2 (UniProt Q4KMQ2)
inactive: erlotinib 0.024 | [1] -0.012 | [2] 0.017 | [3] 0.009 | [4] 0.006 | [5] 0.01 | [6] 0.052 | [7] -0.01 | [8] -0.008 | [9] 0.092

ARG2 (UniProt P78540)
inactive: erlotinib -0.036 | [1] 0.025 | [2] 0.002 | [3] 0.018 | [4] 0.06 | [5] 0.061 | [6] -0.009 | [7] 0.004 | [8] 0.091 | [9] 0.054

ANXA6 (UniProt P08133)
inactive: erlotinib 0 | [1] 0.044 | [2] 0.023 | [3] 0.014 | [4] 0.012 | [5] 0.062 | [6] 0.019 | [7] -0.012 | [8] 0.003 | [9] -0.036

ANP32E (UniProt Q9BTT0)
inactive: erlotinib 0.211 | [1] 0.038 | [2] 0.114 | [3] -0.062 | [4] 0.027 | [5] -0.025 | [6] 0 | [7] -0.014 | [8] -0.026 | [9] -0.084

ARF1 (UniProt P84077)
inactive: erlotinib 0.018 | [1] 0.011 | [2] 0.186 | [3] 0.088 | [4] -0.007 | [5] -0.031 | [6] -0.003 | [7] -0.048 | [8] 0.032 | [9] -0.106

AP2A1 (UniProt O95782)
inactive: erlotinib -0.019 | [1] 0.012 | [2] -0.035 | [3] 0.003 | [4] -0.041 | [5] 0.003 | [6] 0.057 | [9] -0.038
active: [7] -0.381 | [8] -0.527
